# According to doi:10.1101/2024.01.05.574302 (bioRxiv, 2024):
# Amino acid sequences for entries named in this document (tags omitted). Residues count along the entry.
# APC-SAMP1 (aa 1546-1597) (P25054, residues 1546-1597): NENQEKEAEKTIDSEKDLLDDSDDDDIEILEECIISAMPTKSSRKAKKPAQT
# APC-SAMP2 (aa 1705-1754) (P25054, residues 1705-1754): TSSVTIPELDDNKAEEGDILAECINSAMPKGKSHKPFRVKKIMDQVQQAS
# APC-SAMP3 (aa 2009-2074) (P25054, residues 2009-2074): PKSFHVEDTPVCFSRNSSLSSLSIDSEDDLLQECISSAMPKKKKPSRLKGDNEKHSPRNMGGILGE
# Where two headings read alike, the source gives them in different places. Results are given in words; binding and its absence hold for the method and conditions named. For some assays here: Binding seen in cells or lysates may run through a third protein. Some binding calls cover weakened binding; strength is not graded here. For some assays here: Sequences can lack the tags named with a protein.
# Legend:
# [1] = biological target: T1, ASAP1 SH3 domain (aa. 1083-1147) (mouse, UniProt Q9QWY8 1083-1147); test: ITC
# T1 sequence (looked up): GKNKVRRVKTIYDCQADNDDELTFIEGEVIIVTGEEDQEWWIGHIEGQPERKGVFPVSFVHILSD
# [2] = biological target: T2, gAnkB (aa. 1476-1727) fragment of the neurospecific domain, Trx-His6-3×StrepII fusion (human) (UniProt Q01484); test: pull-down
# T2 sequence: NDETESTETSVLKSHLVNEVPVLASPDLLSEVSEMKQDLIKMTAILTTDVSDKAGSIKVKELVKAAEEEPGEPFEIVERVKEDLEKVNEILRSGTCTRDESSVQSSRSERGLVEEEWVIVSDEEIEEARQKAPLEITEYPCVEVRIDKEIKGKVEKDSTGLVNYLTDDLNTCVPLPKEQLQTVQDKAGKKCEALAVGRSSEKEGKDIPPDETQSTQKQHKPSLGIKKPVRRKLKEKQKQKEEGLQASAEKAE
Substance,binding [1],binding ([1]; record 2),binding [2]
APC-SAMP1 (aa 1546-1597) (from UniProt P25054 1546-1597) (domain or fragment),binds,,
APC-SAMP2 (aa 1705-1754) (from UniProt P25054 1705-1754) (domain or fragment),binds,binds,
APC-SAMP3 (aa 2009-2074) (from UniProt P25054 2009-2074) (domain or fragment),binds,,
Flag-tagged full-length ASAP1 (from UniProt Q9QWY8 1-1147),,,binds
